# Results from PubChem BioAssay AID485353 (National Center for Advancing Translational Sciences (NCATS), 2010).
# About 610 (0.18%) of roughly 330,000 compounds were called active. This list was built around the results that the source calls inconclusive (neither active nor inactive); the mix of calls is not that of the screen. Calls come from the whole dose curve. Where the call is inconclusive, the potency comes from a doubtful curve fit.
# Experiment: qHTS of Yeast-based Assay for SARS-CoV PLP; note: nearly all actives have a fitted effect of over 55% in size
# Conditions: S. cerevisiae expressing SARS-CoV PLpro; Potency: growth rescue; series mostly up to 32.9 µM
# Potency is the fitted concentration of half-maximal effect.
row,Structure (SMILES),Potency
1,COc1ccc(CCNc2nc(C)c(C(C)=O)s2)cc1OC,inactive
2,COc1ccc(CNC(=O)c2ccc(CN3CCOCC3)cc2)cc1,inactive
3,Cn1c(SCC(=O)NNC(=O)c2ccccc2O)nnc1-c1ccccc1,"inconclusive: 6.31 µM [activator, partial curve]"
4,CC1CC(=O)N(CC(=O)Nc2ccc(Br)cc2)c2ccccc2S1(=O)=O (stereo unspecified),"inconclusive: 3.98 µM [activator, single point]"
5,Cc1cccc(C)c1-n1c(C)cc(/C=N/NC(N)=S)c1C,active: 10 µM
6,Cn1c(=O)cc(OCCCC(=O)Nc2ccccn2)c2ccccc21,"inconclusive: 3.16 µM [activator, single point]"
7,COc1cccc(-n2nnnc2SCC(=O)NC2CCCC2)c1,inactive
8,CC1CC(=O)Nc2ccc([N+](=O)[O-])cc2N1C (stereo unspecified),"inconclusive: 2.82 µM [activator, partial curve]"
9,Cc1ccc2[nH]c(=O)c(CN(C)S(=O)(=O)c3cccc4nonc34)cc2c1,"inconclusive: 20 µM [activator, single point]"
10,CCC(=O)NC(=S)Nc1ccc(NC(=O)c2cccc([N+](=O)[O-])c2C)cc1,"inconclusive: 3.98 µM [activator, single point]"
11,CCC(=O)Nc1ccc(OCC2CCCO2)cc1 (stereo unspecified),"inconclusive: 20 µM [activator, single point]"
12,COc1cc(/C=C2/C(=N)N3C(=NC2=O)SN=C3S(C)(=O)=O)ccc1OS(=O)(=O)c1ccc(C)cc1,"inconclusive: 1.58 µM [activator, partial curve, poor fit]"
13,CN1CCN(/C=N/c2sc3c(c2C#N)CCCCC3)CC1,"inconclusive: 4.47 µM [activator, single point]"
14,CC(=O)Oc1ccc(-c2cccc(C(=O)OCC(=O)Nc3ccccc3Oc3ccccc3)c2)cc1,"inconclusive: 0.398 µM [activator, partial curve, poor fit]"
15,O=C1NC(Cc2ccccc2)c2nc3cc(Cl)ccc3c(=O)n2-c2ccccc21 (stereo unspecified),inactive
16,Cc1cccc(NC(=O)CSc2nnnn2C)n1,"inconclusive: 10 µM [activator, single point]"
17,C=CCN1C(=O)N(c2ccc(F)cc2)C(=O)C1CC(=O)Nc1ccc(Cl)cc1 (stereo unspecified),inactive
18,Cc1ccccc1CNC(=O)c1ccccc1C(=O)O,"inconclusive: 11.2 µM [activator, partial curve]"
19,COc1ccc(C(=O)NC(=S)N2CCN(c3ccccc3O)CC2)cc1,"inconclusive: 10 µM [activator, partial curve]"
20,CCN(CC)c1ccc(NC(=O)CN2CCN(CC(=O)Nc3ccccc3OC)CC2)cc1,inactive
21,Cc1nc(=O)c(-c2ccccc2)c(C)n1CCO,"inconclusive: 3.16 µM [activator, single point]"
22,COc1ccc(CC(=O)NN2C(=O)c3ccccc3C2=O)cc1,"inconclusive: 0.316 µM [activator, full curve, poor fit]"
23,O=C(NCc1ccccc1)N(Cc1nc2ccccc2c(=O)[nH]1)C1CCCC1,"inconclusive: 14.1 µM [activator, single point]"
24,CCCCc1nc(C(N)=O)c2[nH]c(=O)n(-c3ccccc3F)c2n1,"inconclusive: 22.4 µM [activator, single point]"

row,Structure (SMILES),Potency
1,Cc1ccc(Cn2nnc3c(=O)[nH]c(C(=O)NCc4ccco4)nc32)cc1,inactive
2,CCN(CC)CCN(C(=O)c1cc(Cl)sc1Cl)c1nc2cc3c(cc2s1)OCO3,"inconclusive: 3.98 µM [activator, single point]"
3,Nc1nonc1C(=Nc1ccccc1)NO,"inconclusive: 22.4 µM [activator, single point]"
4,CCN1CCN(C(CNS(=O)(=O)c2ccc(C)cc2)c2cccnc2)CC1 (stereo unspecified),"inconclusive: 20 µM [activator, single point]"
5,CC1CN(C(=O)COc2ccc3ccccc3c2Br)CC(C)O1 (stereo unspecified),"inconclusive: 3.98 µM [activator, single point]"
6,O=C(CNc1cccc(Cl)c1)NNC(=S)NCc1ccccc1,inactive
7,CCC(=O)Nc1ccc(N2CCN(CC)CC2)c(Cl)c1,"inconclusive: 17.8 µM [activator, single point]"
8,COC(=O)c1ccc(S(=O)(=O)NNC(=O)COc2ccc(C)cc2)cc1,"inconclusive: 4.47 µM [activator, single point]"
9,CCOC(=O)c1c(NC(=O)COc2ccccc2)sc2c1CC(C)(C)NC2(C)C,inactive
10,CCNC(=S)N/N=C(\C)c1ccc2ccccc2c1OC(F)F,inactive
11,CCn1c(C(=O)N2CCC(C(=O)NCc3ccc4c(c3)OCO4)CC2)cc2sccc21,"inconclusive: 1.12 µM [activator, partial curve]"
12,O=C(CNS(=O)(=O)c1c(Cl)cccc1Cl)OCc1csc(-c2ccccc2)n1,inactive
13,CS(=O)(=O)N1CCN(c2ccc([N+](=O)[O-])cc2C(F)(F)F)CC1,inactive
14,Cc1cccc(-n2c(-c3cccs3)nc3ccccc3c2=O)c1,"inconclusive: 11.2 µM [activator, partial curve]"
15,N#CC1(NC(=O)COC(=O)C23CC4CC(CC(O)(C4)C2)C3)CCCCC1,"inconclusive: 20 µM [activator, single point]"
16,c1cc2c(cc1-c1csc(NNC3=NCCCCC3)n1)OCCO2,inactive
17,Cc1cc(C)nc(N(C#N)CC(=O)N2CCC(C(N)=O)CC2)n1,"inconclusive: 11.2 µM [activator, partial curve]"
18,CCN(c1ccc(OC)cc1)S(=O)(=O)c1ccc2c(c1)NC(=O)CS2,"inconclusive: 4.47 µM [activator, single point]"
19,Cn1ncc2c(NNC(=O)c3ccc(Cl)cc3Cl)ncnc21,"inconclusive: 3.98 µM [activator, single point]"
20,O=C(COc1ccc(Cl)cc1Br)N1CCN(c2ccccc2)CC1,"inconclusive: 12.6 µM [activator, single point]"
21,C=CCN=C(NC#N)SCC(=O)NCc1ccccc1,"inconclusive: 22.4 µM [activator, single point]"
22,O=C(NNC(=O)c1ccccc1OCc1ccccc1)c1ccccc1O,"inconclusive: 4.47 µM [activator, full curve, poor fit]"
23,Cc1ccc(NC(=O)c2ccc(OCC3CCCO3)cc2)cc1 (stereo unspecified),inactive
24,CCN(C(=O)Cn1c([N+](=O)[O-])cnc1C)c1ccccc1,"inconclusive: 20 µM [activator, single point]"

# Reprinted at random: 3 entries already listed.
row,Structure (SMILES),Potency
22,O=C(NNC(=O)c1ccccc1OCc1ccccc1)c1ccccc1O,"inconclusive: 4.47 µM [activator, full curve, poor fit]"
20,CCN(CC)c1ccc(NC(=O)CN2CCN(CC(=O)Nc3ccccc3OC)CC2)cc1,inactive
14,Cc1cccc(-n2c(-c3cccs3)nc3ccccc3c2=O)c1,"inconclusive: 11.2 µM [activator, partial curve]"

# More records

row,Structure (SMILES),Potency
1,COc1ccc(S(=O)(=O)N(C)CC(=O)Nc2cccc(C(C)=O)c2)cc1,"inconclusive: 3.55 µM [activator, single point]"
2,CCC(C)c1ccccc1NC(=S)NC(=O)c1ccco1 (stereo unspecified),inactive
3,Cc1cc(=O)oc(C)c1C(=O)OCC(=O)c1ccc2ccccc2c1,inactive
4,Oc1ccc(/C=N/Nc2cc(N3CCCC3)nc(N3CCCC3)n2)cc1O,"inconclusive: 12.6 µM [activator, single point]"
5,Cc1ccc(NC(=S)NCc2ccc3c(c2)OCO3)cc1,"inconclusive: 20 µM [activator, single point]"
6,CCCc1nc2oc3cc(OC)ccc3c(=O)c2c(=O)n1CCc1ccccc1,inactive
7,CC1=CC(C)(C)NC(=S)N1c1ccc(C)cc1,"inconclusive: 12.6 µM [activator, single point]"
8,O=C(N=C1SCC(=O)N1c1ccccc1)c1ccco1,"inconclusive: 4.47 µM [activator, single point]"
9,CC(C)c1cc(C(=O)Nc2cc(Cl)ccc2O)no1,"inconclusive: 20 µM [activator, single point]"
10,COC(=O)c1cc(NC(=O)Cn2nc(C)n3cccc3c2=O)cc(C(=O)OC)c1,"inconclusive: 17.8 µM [activator, single point]"
11,O=C(NCCc1ccc(Cl)cc1)c1cccc(N2CCCC2=O)c1,"inconclusive: 20 µM [activator, single point]"
12,O=C1CC[C@@]2(O)[C@H]3Cc4ccc(O)c5c4[C@@]2(CCN3CC2CC2)[C@H]1O5,"inconclusive: 3.98 µM [activator, single point]"
13,O=C(O)COc1ccccc1C=NNc1ccc([N+](=O)[O-])cc1S(=O)(=O)Nc1ccc(Cl)cc1,"inconclusive: 11.2 µM [activator, single point]"
14,COc1cc(/C=C2\SC(c3ccc(C)cc3)=NC2=O)ccc1O,inactive
15,O=C(Nc1ccccc1C(=O)N1CCOCC1)c1ccc(Br)cc1,inactive
16,S=c1nc(C2COc3ccccc3O2)[nH][nH]1 (stereo unspecified),inactive
17,CC(=O)NC(c1ccc(Cl)cc1Cl)c1ccc2cccnc2c1O (stereo unspecified),"inconclusive: 3.16 µM [activator, single point]"
18,COc1ccc(CN2CCCC(C(=O)N3CCc4ccccc4C3)C2)cc1OC (stereo unspecified),"inconclusive: 4.47 µM [activator, single point]"
19,Cc1ncc(CO)c(/C=N/NC(=O)c2ccc(Br)cc2)c1O,"inconclusive: 20 µM [activator, single point]"
20,Nc1ccc(C(=O)Nc2cccc(NC(=O)c3ccc(N)cc3)c2)cc1,"inconclusive: 20 µM [activator, single point]"
21,O=C(N/N=C/C1CC=CCC1)c1ccc(Cl)cc1O (stereo unspecified),active: 11.2 µM
22,CC(C)C1Oc2ccccc2N(CC(=O)NCCCN2C(C)CCCC2C)C1=O (stereo unspecified),"inconclusive: 3.55 µM [activator, partial curve]"
23,Cc1ccc(Nc2nc(NCCCN3CCOCC3)nc(N)c2[N+](=O)[O-])cc1,"inconclusive: 20 µM [activator, single point]"
